# The other results are listed elsewhere or left out.
# Assays:
# Test in all cases: glycan array binding signal (z-score within array); higher = stronger binding
# Conditions in all cases: glycan notation: IUPAC condensed, linker removed
# [1] = target: Fuc(a1-3)[Gal3S(b1-4)]GlcNAc
# In short: (§1)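 Glycan array data came from 3228 arrays in the Consortium for Functional Glycomics database, and only arrays with an available protein sequence were kept. Glycan names were put into IUPAC-condensed notation, and columns mapping to the same glycan were averaged. The binding signal is a within-array Z-score, averaged across arrays of one protein sequence run at different concentrations or buffers and across linkers. A negative Z-score can be read as non-binding.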
# [2] = target: Fuc(a1-3)[Gal3S(b1-4)]GlcNAc6S
# In short: as §1
# [3] = target: Fuc(a1-3)[GalNAc(b1-4)]GlcNAc
# In short: as §1
# [4] = target: Fuc(a1-3)[GalNAc(b1-4)]GlcNAc6S
# In short: as §1
# Fuc(a1-4)GlcNAc = target: Fuc(a1-4)GlcNAc
# In short: as §1
# Fuc(b1-3)GlcNAc = target: Fuc(b1-3)GlcNAc
# In short: as §1
# Gal(a1-2)Gal = target: Gal(a1-2)Gal
# In short: as §1
# Gal(a1-3)Gal = target: Gal(a1-3)Gal
# In short: as §1
# Gal(a1-3)Gal(b1-3)GlcNAc = target: Gal(a1-3)Gal(b1-3)GlcNAc
# In short: as §1
# [5] = target: Gal(a1-3)Gal(b1-3)GlcNAc(b1-2)Man
# In short: as §1
# [6] = target: Gal(a1-3)Gal(b1-3)GlcNAc(b1-2)Man(a1-3)[Gal(a1-3)Gal(b1-3)GlcNAc(b1-2)Man(a1-6)]Man(b1-4)GlcNAc(b1-4)GlcNAc
# In short: as §1
# [7] = target: Gal(a1-3)Gal(b1-3)GlcNAc(b1-3)GalNAc
# In short: as §1
# [8] = target: Gal(a1-3)Gal(b1-3)GlcNAc(b1-6)GalNAc
# In short: as §1
# [9] = target: Gal(a1-3)Gal(b1-3)[Fuc(a1-4)]GlcNAc(b1-2)Man(a1-3)[Gal(a1-3)Gal(b1-3)[Fuc(a1-4)]GlcNAc(b1-2)Man(a1-6)]Man(b1-4)GlcNAc(b1-4)GlcNAc
# In short: as §1
# Gal(a1-3)Gal(b1-4)Glc = target: Gal(a1-3)Gal(b1-4)Glc
# In short: as §1
# Gal(a1-3)Gal(b1-4)GlcNAc = target: Gal(a1-3)Gal(b1-4)GlcNAc
# In short: as §1
# [10] = target: Gal(a1-3)Gal(b1-4)GlcNAc(b1-2)Man
# In short: as §1
# [11] = target: Gal(a1-3)Gal(b1-4)GlcNAc(b1-2)Man(a1-3)[Gal(a1-3)Gal(b1-4)GlcNAc(b1-2)Man(a1-6)]Man(b1-4)GlcNAc(b1-4)GlcNAc
# In short: as §1
# [12] = target: Gal(a1-3)Gal(b1-4)GlcNAc(b1-3)GalNAc
# In short: as §1
# [13] = target: Gal(a1-3)Gal(b1-4)GlcNAc(b1-6)GalNAc
# In short: as §1
# [14] = target: Gal(a1-3)Gal(b1-4)[Fuc(a1-3)]GlcNAc
# In short: as §1
# [15] = target: Gal(a1-3)Gal(b1-4)[Fuc(a1-3)]GlcNAc(b1-2)Man(a1-3)[Gal(a1-3)Gal(b1-4)[Fuc(a1-3)]GlcNAc(b1-2)Man(a1-6)]Man(b1-4)GlcNAc(b1-4)GlcNAc
# In short: as §1
# Gal(a1-3)GalNAc = target: Gal(a1-3)GalNAc
# In short: as §1
# [16] = target: Gal(a1-3)[Gal(a1-4)]Gal(b1-4)GlcNAc
# In short: as §1
# [17] = target: Gal(a1-4)Gal(b1-3)GlcNAc(b1-2)Man(a1-3)[Gal(a1-4)Gal(b1-3)GlcNAc(b1-2)Man(a1-6)]Man(b1-4)GlcNAc(b1-4)GlcNAc
# In short: as §1
# Gal(a1-4)Gal(b1-4)Glc = target: Gal(a1-4)Gal(b1-4)Glc
# In short: as §1
# Gal(a1-4)Gal(b1-4)GlcNAc = target: Gal(a1-4)Gal(b1-4)GlcNAc
# In short: as §1
# [18] = target: Gal(a1-4)Gal(b1-4)GlcNAc(b1-2)Man(a1-3)[Gal(a1-4)Gal(b1-4)GlcNAc(b1-2)Man(a1-6)]Man(b1-4)GlcNAc(b1-4)GlcNAc
# In short: as §1
# [19] = target: Gal(a1-4)Gal(b1-4)GlcNAc(b1-3)Gal(b1-4)Glc
# In short: as §1
# Gal(a1-4)GlcNAc = target: Gal(a1-4)GlcNAc
# In short: as §1
# Gal(a1-6)Glc = target: Gal(a1-6)Glc
# In short: as §1
# Gal(b1-2)Gal = target: Gal(b1-2)Gal
# In short: as §1
# Gal(b1-3)Gal = target: Gal(b1-3)Gal
# In short: as §1
# Gal(b1-3)Gal(b1-4)GlcNAc = target: Gal(b1-3)Gal(b1-4)GlcNAc
# In short: as §1
# Gal(b1-3)GalNAc = target: Gal(b1-3)GalNAc
# In short: as §1
# [20] = target: Gal(b1-3)GalNAc(a1-3)[Fuc(a1-2)]Gal(b1-4)Glc
# In short: as §1
# [21] = target: Gal(b1-3)GalNAc(a1-3)[Fuc(a1-2)]Gal(b1-4)GlcNAc
# In short: as §1
binder,measurement,setting,value
LlpA (Arthrobacter sp) (protein) MGSSHHHHHHSSGLVPRGSHMTLHPETALRPGAAATSPNSRYRLLYQTDGNLVLYGPDGPLWDSGTNGHGAGACIMQADGNLVLYGPNDEYVWDTETDNNPGSRLVIQDDGNAVIYRPDGSPLWATETCQPPGSADSHVLQSGSTLTPTHGIRSANGLYGLLYQTDGNLVFYGPDGPLWDSGTNGRGAGACIMQPDGNLVLYGPHDEYVWDTETDNNPGSRLVIQDDGNAVIYRPDGNPTWVTGTH,glycan array binding signal (z-score),[1],0.665
same,glycan array binding signal (z-score),[2],0.757
same,glycan array binding signal (z-score),[3],0.003
same,glycan array binding signal (z-score),[4],-0.21
same,glycan array binding signal (z-score),Fuc(a1-4)GlcNAc,0.825
same,glycan array binding signal (z-score),Fuc(b1-3)GlcNAc,-0.675
same,glycan array binding signal (z-score),Gal(a1-2)Gal,0.948
same,glycan array binding signal (z-score),Gal(a1-3)Gal,0.304
same,glycan array binding signal (z-score),Gal(a1-3)Gal(b1-3)GlcNAc,0.672
same,glycan array binding signal (z-score),[5],-0.063
same,glycan array binding signal (z-score),[6],0.575
same,glycan array binding signal (z-score),[7],-0.548
same,glycan array binding signal (z-score),[8],0.247
same,glycan array binding signal (z-score),[9],0.168
same,glycan array binding signal (z-score),Gal(a1-3)Gal(b1-4)Glc,0.314
same,glycan array binding signal (z-score),Gal(a1-3)Gal(b1-4)GlcNAc,0.113
same,glycan array binding signal (z-score),[10],-0.374
same,glycan array binding signal (z-score),[11],0.575
same,glycan array binding signal (z-score),[12],-0.332
same,glycan array binding signal (z-score),[13],-1.49
same,glycan array binding signal (z-score),[14],0.242
same,glycan array binding signal (z-score),[15],0.849
same,glycan array binding signal (z-score),Gal(a1-3)GalNAc,-0.594
same,glycan array binding signal (z-score),[16],1.43
same,glycan array binding signal (z-score),[17],-0.794
same,glycan array binding signal (z-score),Gal(a1-4)Gal(b1-4)Glc,0.629
same,glycan array binding signal (z-score),Gal(a1-4)Gal(b1-4)GlcNAc,0.322
same,glycan array binding signal (z-score),[18],1.09
same,glycan array binding signal (z-score),[19],0.049
same,glycan array binding signal (z-score),Gal(a1-4)GlcNAc,-0.048
same,glycan array binding signal (z-score),Gal(a1-6)Glc,-0.727
same,glycan array binding signal (z-score),Gal(b1-2)Gal,-1.45
same,glycan array binding signal (z-score),Gal(b1-3)Gal,0.289
same,glycan array binding signal (z-score),Gal(b1-3)Gal(b1-4)GlcNAc,0.043
same,glycan array binding signal (z-score),Gal(b1-3)GalNAc,-0.349
same,glycan array binding signal (z-score),[20],-0.189
same,glycan array binding signal (z-score),[21],-0.494

# Random excerpt: 2 records from the list.
binder,measurement,setting,value
LlpA (Arthrobacter sp) (protein) MGSSHHHHHHSSGLVPRGSHMTLHPETALRPGAAATSPNSRYRLLYQTDGNLVLYGPDGPLWDSGTNGHGAGACIMQADGNLVLYGPNDEYVWDTETDNNPGSRLVIQDDGNAVIYRPDGSPLWATETCQPPGSADSHVLQSGSTLTPTHGIRSANGLYGLLYQTDGNLVFYGPDGPLWDSGTNGRGAGACIMQPDGNLVLYGPHDEYVWDTETDNNPGSRLVIQDDGNAVIYRPDGNPTWVTGTH,glycan array binding signal (z-score),[9],0.168
same,glycan array binding signal (z-score),Gal(b1-3)Gal,0.289
